PMC12279946
The exact form of at least one protein or probe is not confirmed. At least one verdict was read from the data and is not stated in words by the source. Protein sequences can lack the tags named with them.

Molecular target: T1, SprT-BR-L99S (UniProt Q9H040)
T1 sequence (looked up): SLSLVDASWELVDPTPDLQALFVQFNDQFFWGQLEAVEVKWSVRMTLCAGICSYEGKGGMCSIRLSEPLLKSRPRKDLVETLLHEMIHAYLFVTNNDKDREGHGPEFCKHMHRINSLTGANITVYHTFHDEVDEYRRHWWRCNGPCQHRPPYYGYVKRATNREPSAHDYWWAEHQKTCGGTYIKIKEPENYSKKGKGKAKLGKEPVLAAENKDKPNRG
Test: NMR 1H,15N-HSQC
Conditions: 200 uM DNA + 500 uM Ub1, additional effect of Ub1 virtually absent; NMR: 20 mM HEPES/KOH pH 7.2, 150 mM KCl, 10% D2O, 308 K; 100 uM protein, 2x dsDNA, 5x Ub1; recombinant protein; residues 28-245

## CCTTGCTAGGACATC (double strand) [15-bp dsDNA (NMR)]
  binding result: binds
